At least one read-out could not be matched to a standard name with certainty.
Target: Serratia plymuthica sucrose isomerase SmuA variant SmuA(Q181P/D398G/F453Y) (Serratia plymuthica, UniProt D0VX20, D383G/F438Y/Q166P/V450E)
Experiment: Michaelis-Menten kinetics of the conversion of sucrose into isomaltulose (HPLC, initial velocities)
Type: biochemical
Details: 25 mM calcium acetate pH 5.5, 20 °C
Experimental: The enzyme activity assay was carried out in 25 mM calcium acetate pH 5.5 in the presence of 1.16 M sucrose (Sigma-Aldrich, St. Louis, MO) for 16 h at 20 °C.
The reaction mixture was composed as follows:
The enzymatic product composition was determined on an Agilent 1200 HPLC instrument (Agilent Technologies, Santa Clara, United States of America) equipped with a Smart line refractive index detector 2300 (Knauer, Berlin, Germany). The sample solution was applied on an XBridge amide column (particle size: 5.0 µm, inner diameter: 4.6, length: 250 mm); (Waters, Milford, MA) at a flow rate of 2 mL/min using a running buffer of 57.8 % acetonitrile, 26.1 % acetone and 16.1 % H2O.
The Michaelis constant (KM), the turnover number (kcat) and the catalytic efficiency (kcat/KM) were determined for isomaltulose. […] To determine the initial velocities at these sucrose concentrations, the isomaltulose yield was analysed via HPLC and plotted against the respective sucrose concentration. […]
Figure 1 illustrates analysis of the enzyme kinetics and the product spectrum of mutant SmuA. […] The initial velocities for the production of isomaltulose were measured by HPLC at sucrose concentrations of 50 mM, 100 mM, 150 mM, 200 mM, 300 mM, and 400 mM. […]

Protein sequences, listed by entry. Tags and fused reporters are not part of them.
UniProt D0VX20, entry or part of it Q166P/D383G/F438Y/V450E: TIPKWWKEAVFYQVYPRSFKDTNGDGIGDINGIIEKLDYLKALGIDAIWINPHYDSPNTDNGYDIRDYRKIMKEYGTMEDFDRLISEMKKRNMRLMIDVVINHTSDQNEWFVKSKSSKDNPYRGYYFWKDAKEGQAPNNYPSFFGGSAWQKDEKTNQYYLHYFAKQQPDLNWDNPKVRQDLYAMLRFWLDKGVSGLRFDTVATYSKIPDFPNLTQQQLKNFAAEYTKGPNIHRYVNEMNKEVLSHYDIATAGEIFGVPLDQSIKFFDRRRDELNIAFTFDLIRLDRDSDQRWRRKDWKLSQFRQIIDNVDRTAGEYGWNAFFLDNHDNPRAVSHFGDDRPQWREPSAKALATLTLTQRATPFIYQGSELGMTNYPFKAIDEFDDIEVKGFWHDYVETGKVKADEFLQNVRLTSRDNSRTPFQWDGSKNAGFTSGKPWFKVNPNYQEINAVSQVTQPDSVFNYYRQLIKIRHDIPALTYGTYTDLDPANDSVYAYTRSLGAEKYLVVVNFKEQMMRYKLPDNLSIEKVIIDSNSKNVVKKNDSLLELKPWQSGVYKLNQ

OC[C@H]1O[C@@](CO)(O[C@H]2O[C@H](CO)[C@@H](O)[C@H](O)[C@H]2O)[C@@H](O)[C@@H]1O [sucrose]
kcat/KM: 990 M⁻¹ s⁻¹

Reference: EP3653708A1, “ISOMALTULOSE PRODUCTION” (Evonik Operations GmbH, priority 2018, dated 2020)
